Experiment [1] deals with c-Abl (expressed from c-ABL cDNA in COS1 cells) (UniProt P00519). As to the kind of experiment: co-immunoprecipitation from COS1 cells co-transfected with FUS1 and c-ABL.
The target is the same in experiment [2]. As to the kind of experiment: co-expression / co-immunoprecipitation in COS1 cells.

Protein sequences, listed by entry. Tags and fused reporters are not part of them.
UniProt P00519: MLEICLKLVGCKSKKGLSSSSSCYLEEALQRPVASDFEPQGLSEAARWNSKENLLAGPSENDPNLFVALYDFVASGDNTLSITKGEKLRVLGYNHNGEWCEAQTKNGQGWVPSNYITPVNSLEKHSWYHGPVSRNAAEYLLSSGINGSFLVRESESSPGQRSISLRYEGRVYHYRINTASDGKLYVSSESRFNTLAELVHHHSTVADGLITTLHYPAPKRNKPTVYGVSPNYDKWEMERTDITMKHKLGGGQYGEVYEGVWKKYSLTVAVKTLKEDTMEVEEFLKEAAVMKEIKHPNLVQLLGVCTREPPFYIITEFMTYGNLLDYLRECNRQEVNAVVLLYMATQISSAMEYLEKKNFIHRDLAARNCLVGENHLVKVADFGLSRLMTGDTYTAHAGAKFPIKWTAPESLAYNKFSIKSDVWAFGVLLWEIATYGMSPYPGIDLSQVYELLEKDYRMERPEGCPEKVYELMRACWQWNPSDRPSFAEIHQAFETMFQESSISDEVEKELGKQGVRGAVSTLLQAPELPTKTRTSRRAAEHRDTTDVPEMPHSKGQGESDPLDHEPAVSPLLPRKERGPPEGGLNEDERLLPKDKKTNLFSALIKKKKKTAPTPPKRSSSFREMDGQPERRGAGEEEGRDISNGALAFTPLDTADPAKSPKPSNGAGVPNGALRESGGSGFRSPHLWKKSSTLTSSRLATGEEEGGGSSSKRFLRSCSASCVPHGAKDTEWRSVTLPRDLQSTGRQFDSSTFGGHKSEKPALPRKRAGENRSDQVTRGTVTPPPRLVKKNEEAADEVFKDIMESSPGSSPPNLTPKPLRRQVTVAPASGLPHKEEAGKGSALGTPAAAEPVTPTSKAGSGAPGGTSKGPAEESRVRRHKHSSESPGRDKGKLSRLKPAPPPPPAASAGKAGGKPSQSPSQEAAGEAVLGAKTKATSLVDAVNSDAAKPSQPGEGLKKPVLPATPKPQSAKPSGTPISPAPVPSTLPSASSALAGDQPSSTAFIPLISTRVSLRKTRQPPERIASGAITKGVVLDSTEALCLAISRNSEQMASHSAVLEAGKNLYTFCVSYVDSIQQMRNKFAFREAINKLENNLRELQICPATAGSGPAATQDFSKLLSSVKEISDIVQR

Results are given in words; binding and its absence hold for the method and conditions named. Binding seen in cells or lysates may run through a third protein. Some entries that bind do so weakly or less than the wild type. Sequences can lack the tags named with a protein.

Consider 1 molecule from patent US20060251726A1.

B1: wild type Fus1 protein (protein)
chain: GASGSKARGLWPFASAAGGGGSEAAGAEQALVRPRGRAVPPFVFTRRGSMFYDEDGDLAHEFYEETIVTKNGQKRAKLRRVHKNLIPQGIVKLDHPRIHVDFPVILYEV
As for B1, the binding result in experiment [1] and in experiment [2] was “binds” each time.
